Results reported in the supplement of paper PMC10849652.
Some of the results follow.

By UniProt entry, the sequences of proteins in these tests, tags left out. Where a name states a change or a piece, a line headed by the entry shows the natural chain unless it says otherwise.
UniProt Q6ICB0: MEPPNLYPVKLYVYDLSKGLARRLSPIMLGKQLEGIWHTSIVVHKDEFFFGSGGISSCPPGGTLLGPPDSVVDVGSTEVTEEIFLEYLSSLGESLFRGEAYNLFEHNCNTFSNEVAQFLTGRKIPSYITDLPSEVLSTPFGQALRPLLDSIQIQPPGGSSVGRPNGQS
UniProt Q16531, whole entry, looked up: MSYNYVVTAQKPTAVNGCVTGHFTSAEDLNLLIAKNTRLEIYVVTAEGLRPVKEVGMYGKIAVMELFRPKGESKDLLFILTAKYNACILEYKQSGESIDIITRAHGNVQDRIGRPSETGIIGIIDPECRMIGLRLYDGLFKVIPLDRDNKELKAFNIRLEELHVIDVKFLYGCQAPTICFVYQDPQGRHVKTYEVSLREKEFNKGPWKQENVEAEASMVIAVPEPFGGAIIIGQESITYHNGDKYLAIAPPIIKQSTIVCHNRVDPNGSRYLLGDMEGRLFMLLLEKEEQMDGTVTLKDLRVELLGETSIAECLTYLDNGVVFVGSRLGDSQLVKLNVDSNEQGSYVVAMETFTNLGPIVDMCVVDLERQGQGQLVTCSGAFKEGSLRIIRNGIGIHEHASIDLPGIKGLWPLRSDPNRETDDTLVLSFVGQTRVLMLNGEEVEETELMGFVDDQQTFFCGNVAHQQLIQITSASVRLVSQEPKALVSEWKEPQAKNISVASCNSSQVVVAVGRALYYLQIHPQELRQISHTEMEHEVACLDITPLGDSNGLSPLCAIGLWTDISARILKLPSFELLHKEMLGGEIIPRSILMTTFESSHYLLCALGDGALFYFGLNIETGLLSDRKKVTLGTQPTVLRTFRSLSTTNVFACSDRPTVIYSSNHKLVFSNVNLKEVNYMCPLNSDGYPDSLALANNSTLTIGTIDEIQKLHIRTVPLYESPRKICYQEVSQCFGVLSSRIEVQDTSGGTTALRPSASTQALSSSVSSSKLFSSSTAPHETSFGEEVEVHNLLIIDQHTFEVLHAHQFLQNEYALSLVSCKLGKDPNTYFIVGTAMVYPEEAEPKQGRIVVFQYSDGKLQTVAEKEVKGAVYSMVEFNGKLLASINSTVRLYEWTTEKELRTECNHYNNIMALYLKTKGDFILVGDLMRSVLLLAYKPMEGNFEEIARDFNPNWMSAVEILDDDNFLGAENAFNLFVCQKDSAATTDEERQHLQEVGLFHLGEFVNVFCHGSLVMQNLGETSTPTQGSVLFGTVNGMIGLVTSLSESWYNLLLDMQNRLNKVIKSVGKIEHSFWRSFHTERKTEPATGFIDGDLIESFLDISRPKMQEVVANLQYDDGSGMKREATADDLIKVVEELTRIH
UniProt Q7L5Y6, whole entry, looked up: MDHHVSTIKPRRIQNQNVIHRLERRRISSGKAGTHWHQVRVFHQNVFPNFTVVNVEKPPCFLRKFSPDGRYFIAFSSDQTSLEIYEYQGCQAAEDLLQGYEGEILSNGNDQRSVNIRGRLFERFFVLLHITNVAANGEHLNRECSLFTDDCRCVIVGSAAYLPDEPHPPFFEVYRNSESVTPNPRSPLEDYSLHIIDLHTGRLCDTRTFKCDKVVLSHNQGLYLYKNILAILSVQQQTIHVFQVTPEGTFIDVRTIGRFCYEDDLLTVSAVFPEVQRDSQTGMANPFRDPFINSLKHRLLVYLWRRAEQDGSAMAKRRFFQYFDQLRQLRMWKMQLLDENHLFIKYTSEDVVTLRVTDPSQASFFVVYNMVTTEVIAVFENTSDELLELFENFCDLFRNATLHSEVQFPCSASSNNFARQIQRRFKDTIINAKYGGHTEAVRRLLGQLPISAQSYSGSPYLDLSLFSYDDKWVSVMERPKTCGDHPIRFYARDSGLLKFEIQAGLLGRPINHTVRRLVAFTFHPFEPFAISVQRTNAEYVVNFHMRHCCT
UniProt A8MPP1: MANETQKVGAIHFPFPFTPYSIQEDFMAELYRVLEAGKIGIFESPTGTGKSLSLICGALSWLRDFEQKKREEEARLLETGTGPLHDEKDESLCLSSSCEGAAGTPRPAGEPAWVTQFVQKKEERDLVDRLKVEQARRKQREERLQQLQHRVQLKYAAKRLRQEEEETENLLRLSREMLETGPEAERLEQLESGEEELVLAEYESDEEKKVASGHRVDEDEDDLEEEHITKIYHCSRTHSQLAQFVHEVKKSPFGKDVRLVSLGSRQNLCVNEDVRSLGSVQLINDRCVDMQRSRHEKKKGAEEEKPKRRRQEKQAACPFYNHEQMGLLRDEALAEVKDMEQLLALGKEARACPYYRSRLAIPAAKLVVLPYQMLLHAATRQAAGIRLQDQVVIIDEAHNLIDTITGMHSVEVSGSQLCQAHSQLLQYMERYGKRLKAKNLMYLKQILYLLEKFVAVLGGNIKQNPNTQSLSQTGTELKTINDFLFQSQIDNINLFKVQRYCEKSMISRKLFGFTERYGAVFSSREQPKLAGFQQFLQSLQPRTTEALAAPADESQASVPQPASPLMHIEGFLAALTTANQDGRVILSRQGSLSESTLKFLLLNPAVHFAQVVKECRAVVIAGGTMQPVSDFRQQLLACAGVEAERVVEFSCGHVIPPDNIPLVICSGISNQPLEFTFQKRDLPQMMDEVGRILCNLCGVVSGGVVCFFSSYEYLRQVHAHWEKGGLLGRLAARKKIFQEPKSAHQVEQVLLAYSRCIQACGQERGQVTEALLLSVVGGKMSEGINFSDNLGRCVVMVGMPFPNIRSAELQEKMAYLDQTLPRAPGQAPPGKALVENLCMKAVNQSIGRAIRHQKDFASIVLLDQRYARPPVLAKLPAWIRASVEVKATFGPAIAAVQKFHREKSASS
UniProt Q96HY7: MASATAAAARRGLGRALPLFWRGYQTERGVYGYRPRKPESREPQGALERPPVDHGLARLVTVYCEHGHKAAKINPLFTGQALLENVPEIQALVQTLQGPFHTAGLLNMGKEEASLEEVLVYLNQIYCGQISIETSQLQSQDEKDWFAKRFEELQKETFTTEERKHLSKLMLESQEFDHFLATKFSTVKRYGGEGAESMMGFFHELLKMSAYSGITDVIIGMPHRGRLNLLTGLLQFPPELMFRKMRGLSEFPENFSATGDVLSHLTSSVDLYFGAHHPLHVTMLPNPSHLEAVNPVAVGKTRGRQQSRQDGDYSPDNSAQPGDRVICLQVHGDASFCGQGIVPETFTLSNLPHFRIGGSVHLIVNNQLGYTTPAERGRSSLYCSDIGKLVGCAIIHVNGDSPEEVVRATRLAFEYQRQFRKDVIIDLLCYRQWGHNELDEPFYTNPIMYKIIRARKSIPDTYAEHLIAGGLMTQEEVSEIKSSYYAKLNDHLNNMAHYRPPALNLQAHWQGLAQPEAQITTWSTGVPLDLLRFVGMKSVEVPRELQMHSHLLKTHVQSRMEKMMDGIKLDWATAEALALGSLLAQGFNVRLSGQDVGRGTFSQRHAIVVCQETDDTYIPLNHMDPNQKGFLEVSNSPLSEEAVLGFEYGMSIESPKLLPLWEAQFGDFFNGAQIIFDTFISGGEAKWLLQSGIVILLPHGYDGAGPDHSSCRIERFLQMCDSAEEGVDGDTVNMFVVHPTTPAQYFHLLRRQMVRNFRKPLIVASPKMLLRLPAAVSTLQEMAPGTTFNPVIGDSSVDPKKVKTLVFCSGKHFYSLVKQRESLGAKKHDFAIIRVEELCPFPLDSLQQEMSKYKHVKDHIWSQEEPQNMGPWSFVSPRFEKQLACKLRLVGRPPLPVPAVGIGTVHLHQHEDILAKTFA
UniProt Q9H4E7, whole entry, looked up: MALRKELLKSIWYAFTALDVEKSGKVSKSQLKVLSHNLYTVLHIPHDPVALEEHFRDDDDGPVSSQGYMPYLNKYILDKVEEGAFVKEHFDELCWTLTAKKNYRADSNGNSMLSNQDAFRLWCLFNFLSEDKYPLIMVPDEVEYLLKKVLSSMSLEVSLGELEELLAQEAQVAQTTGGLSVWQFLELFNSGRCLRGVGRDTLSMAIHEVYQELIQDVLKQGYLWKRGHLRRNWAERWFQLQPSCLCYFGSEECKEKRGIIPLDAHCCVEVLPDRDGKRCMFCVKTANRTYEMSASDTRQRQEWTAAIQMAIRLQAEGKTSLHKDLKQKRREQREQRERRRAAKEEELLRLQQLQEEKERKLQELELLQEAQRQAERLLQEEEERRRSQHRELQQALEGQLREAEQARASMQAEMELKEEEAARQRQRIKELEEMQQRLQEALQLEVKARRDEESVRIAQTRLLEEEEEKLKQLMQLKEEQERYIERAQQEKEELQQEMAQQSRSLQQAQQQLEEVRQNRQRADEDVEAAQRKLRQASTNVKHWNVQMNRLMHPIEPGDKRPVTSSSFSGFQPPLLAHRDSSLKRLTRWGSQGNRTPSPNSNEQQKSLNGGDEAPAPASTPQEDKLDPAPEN
UniProt Q9H5Z1: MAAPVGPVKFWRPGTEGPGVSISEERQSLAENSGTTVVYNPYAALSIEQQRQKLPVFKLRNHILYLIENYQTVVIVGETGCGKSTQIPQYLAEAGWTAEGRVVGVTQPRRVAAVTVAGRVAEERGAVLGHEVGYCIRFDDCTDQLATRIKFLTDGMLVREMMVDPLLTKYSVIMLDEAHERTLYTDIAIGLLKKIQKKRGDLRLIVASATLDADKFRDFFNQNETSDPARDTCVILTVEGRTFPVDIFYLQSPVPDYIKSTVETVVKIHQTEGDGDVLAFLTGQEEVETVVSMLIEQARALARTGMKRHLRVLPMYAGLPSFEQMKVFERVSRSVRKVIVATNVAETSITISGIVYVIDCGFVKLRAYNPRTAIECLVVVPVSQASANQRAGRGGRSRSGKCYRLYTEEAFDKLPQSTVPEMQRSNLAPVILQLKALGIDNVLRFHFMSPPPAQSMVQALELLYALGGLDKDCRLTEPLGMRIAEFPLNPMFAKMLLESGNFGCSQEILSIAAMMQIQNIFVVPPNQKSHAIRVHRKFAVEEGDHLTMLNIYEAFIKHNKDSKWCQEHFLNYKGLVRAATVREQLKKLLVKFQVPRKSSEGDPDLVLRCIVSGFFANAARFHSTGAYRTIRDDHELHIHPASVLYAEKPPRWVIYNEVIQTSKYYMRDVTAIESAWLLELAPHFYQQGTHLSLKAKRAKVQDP
UniProt Q7L7V1: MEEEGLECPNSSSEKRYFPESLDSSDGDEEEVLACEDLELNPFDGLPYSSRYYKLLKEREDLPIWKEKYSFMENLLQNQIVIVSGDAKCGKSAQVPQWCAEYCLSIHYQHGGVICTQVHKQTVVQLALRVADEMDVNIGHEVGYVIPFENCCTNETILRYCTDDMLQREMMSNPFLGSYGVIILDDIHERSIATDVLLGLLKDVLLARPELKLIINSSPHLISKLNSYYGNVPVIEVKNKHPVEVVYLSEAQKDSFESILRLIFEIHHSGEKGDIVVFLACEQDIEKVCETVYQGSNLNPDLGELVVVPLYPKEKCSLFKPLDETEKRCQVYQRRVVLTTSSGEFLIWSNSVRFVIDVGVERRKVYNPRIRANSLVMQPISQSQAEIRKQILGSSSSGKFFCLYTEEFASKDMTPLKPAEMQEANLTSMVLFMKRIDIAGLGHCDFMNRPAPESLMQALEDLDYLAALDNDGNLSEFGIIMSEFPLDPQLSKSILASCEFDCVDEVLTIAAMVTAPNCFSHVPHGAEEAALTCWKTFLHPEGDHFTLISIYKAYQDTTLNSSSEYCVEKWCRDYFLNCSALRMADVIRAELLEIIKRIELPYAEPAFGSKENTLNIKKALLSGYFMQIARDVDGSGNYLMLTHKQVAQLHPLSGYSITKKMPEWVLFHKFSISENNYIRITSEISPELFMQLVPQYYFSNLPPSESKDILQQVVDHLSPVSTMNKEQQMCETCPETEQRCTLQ
UniProt O15121: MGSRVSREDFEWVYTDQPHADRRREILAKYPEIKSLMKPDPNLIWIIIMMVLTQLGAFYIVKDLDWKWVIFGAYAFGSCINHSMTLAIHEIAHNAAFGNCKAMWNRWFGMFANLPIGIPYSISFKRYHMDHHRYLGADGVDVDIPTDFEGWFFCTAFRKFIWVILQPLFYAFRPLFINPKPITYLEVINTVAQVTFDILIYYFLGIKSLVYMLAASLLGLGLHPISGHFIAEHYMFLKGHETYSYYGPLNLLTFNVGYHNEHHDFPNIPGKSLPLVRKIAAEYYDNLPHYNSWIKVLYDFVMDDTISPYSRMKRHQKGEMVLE
UniProt Q08495: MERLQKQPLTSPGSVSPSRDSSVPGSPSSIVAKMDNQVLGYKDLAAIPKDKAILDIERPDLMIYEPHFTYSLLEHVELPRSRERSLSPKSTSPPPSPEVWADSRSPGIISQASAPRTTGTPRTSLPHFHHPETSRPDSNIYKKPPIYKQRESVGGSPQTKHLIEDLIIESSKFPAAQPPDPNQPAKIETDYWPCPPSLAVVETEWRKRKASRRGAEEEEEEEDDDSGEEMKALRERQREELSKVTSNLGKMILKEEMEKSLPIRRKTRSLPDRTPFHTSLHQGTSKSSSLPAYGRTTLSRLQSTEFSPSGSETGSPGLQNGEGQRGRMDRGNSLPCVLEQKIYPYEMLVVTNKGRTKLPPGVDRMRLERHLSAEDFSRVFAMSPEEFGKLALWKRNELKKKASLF

What was measured:
Test in all cases: log2 fold change, soluble protein after heating vs DMSO (PISA); higher = thermal stabilisation; K562 cells, 10 uM, 30 min; active = over 0.2 and 3.5 SD of the protein, either way, in both replicates (recomputed)
[1] = compound: CC1=CC=C(C=C1)SC2=C3C=C(SC3=CN=C2)C(=O)N
Procedure, shortened: (§1)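 Soluble protein was quantified by TMTpro 16plex LC-MS/MS after channel sums were equalised. It was obtained as the supernatant after 21,000xg for 90 min from pooled aliquots of K562 cells (2×10^6 cells/mL, 10 μM compound, 30 min) heated for 3 min across 48°C-58°C and extracted in PBS with 0.5% NP-40 at 4°C. Thermal stability values are relative to control samples and come from duplicates. They are given as log2 fold changes.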

[2] = compound: CCCS(=O)(=O)Nc1ccc(F)c(C(=O)c2c[nH]c3ncc(-c4ccc(Cl)cc4)cc23)c1F [vemurafenib]
Procedure, shortened: as §1

[3] = compound: CCCS(=O)(=O)Nc1ccc(F)c(C(=O)c2c[nH]c3ncc(Cl)cc23)c1F
Procedure, shortened: as §1

[4] = compound: CCN(CC)Cc1ccc2cc(COC(=O)Nc3ccc(C(=O)NO)cc3)ccc2c1 [givinostat]
Procedure, shortened: as §1

[5] = compound: CCN(CCCOc1ccc2c(Nc3cc(CC(=O)Nc4cccc(F)c4)[nH]n3)ncnc2c1)CCOP(=O)(O)O [barasertib]
Procedure, shortened: as §1

[6] = compound: CC[C@@H]1C(=O)N(C)c2cnc(Nc3ccc(C(=O)NC4CCN(C)CC4)cc3OC)nc2N1C1CCCC1
Procedure, shortened: as §1

[7] = compound: CC[C@@H]1C(=O)N(C)c2cnc(Nc3ccc(C(=O)N[C@H]4CC[C@H](N5CCN(CC6CC6)CC5)CC4)cc3OC)nc2N1C(C)C [volasertib]
Procedure, shortened: as §1

[8] = compound: CCn1c(C(=O)N(C2CC2)C2CC2)cc2c3c(ncn3C)c(Nc3cc(C)n(C)n3)nc21
Procedure, shortened: as §1

[9] = compound: CN(C)CC(=O)Nc1ccc2[nH]c(=O)c3ccccc3c2c1
Procedure, shortened: as §1

[10] = compound: CN(CCOC1=CC=C(C=C1)C[C@H]2C(=O)NC(=O)S2)C3=CC=CC=N3 (racemic) [rosiglitazone]
Procedure, shortened: as §1

[11] = compound: CN1C2=C(C3=C1C(=O)N(N=C3)CC4=CC(=CC=C4)N)SC(=C2)S(=O)C
Procedure, shortened: as §1

[12] = compound: CC1=NC(=CC=C1)C2=C(N=C(N2)C(C)(C)C)C3=CC4=NC=CN=C4C=C3
Procedure, shortened: as §1

[13] = compound: CCCc1cc(C)[nH]c(=O)c1CNC(=O)c1cc(-c2ccnc(N3CCN(C)CC3)c2)cc2c1cnn2C(C)C
Procedure, shortened: as §1

[14] = compound: CC[C@H](C)N1C=C(C2=C(C=C(C=C21)C3=CN=C(C=C3)N4CCNCC4)C(=O)NCC5=C(C=C(NC5=O)C)C)C
Procedure, shortened: as §1

[15] = compound: CCn1cc(-c2ccnc3[nH]c(-c4cccc(CN(C)C)c4)cc23)c(-c2ccc(NC(=O)N(C)C)cc2)n1
Procedure, shortened: as §1

[16] = compound: CN1CCC(CNc2ccc3ncc(-c4cccc(OC(F)(F)F)c4)n3n2)CC1
Procedure, shortened: as §1

[17] = compound: CC1=C(C=C(C=C1)NC(=O)C2=CC(=CC=C2)N(C)C)NC(=O)C3=CC=C(C=C3)O
Procedure, shortened: as §1

[18] = compound: CCCCN(Cc1ccc(C(=O)NO)cc1)C(=O)Nc1ccccc1 [Nexturastat A]
Procedure, shortened: as §1

[19] = compound: CC[C@H](C)[C@@H](C(=O)N[C@@H]([C@@H](C)O)C(=O)N[C@@H](CC(C)C)C(=O)[C@]1(CO1)C)NC(=O)[C@H]([C@@H](C)CC)N(C)C(=O)C [epoxomicin]
Procedure, shortened: as §1

[20] = compound: CC1=C(C=C(C=C1)NC(=O)C2=CC(=CC=C2)C(C)(C)C#N)NC3=CC4=C(C=C3)N=CN(C4=O)C
Procedure, shortened: as §1

Measured: log2 fold change

DESI1 (UniProt Q6ICB0)
inactive: [1] -0.016 | [2] -0.182 | [3] -0.1 | [4] 0.06 | [5] 0.201 | [6] -0.078 | [7] -0.136 | [8] 0.1 | [9] -0.15 | [10] -0.006 | [11] -0.029

DHRSX (UniProt Q8N5I4)
inactive: [12] -0.04 | [2] 0.007 | [13] -0.028 | [4] -0.067 | [5] 0.026 | [14] 0.027 | [8] -0.085 | [15] -0.013 | [9] 0.073 | [10] -0.176 | [16] 0.105

DDAH1 (UniProt O94760)
inactive: [1] 0.008 | [2] -0.098 | [3] 0.072 | [13] -0.061 | [4] -0.064 | [5] 0.022 | [6] 0.075 | [7] 0.091 | [14] 0.009 | [8] -0.007 | [15] -0.035 | [9] 0.022 | [10] -0.039 | [11] -0.041 | [16] 0.035

DHX34 (UniProt Q14147)
inactive: [17] -0.042 | [12] 0 | [18] 0.288 | [4] 0.197 | [6] 0.088 | [19] 0.208 | [8] -0.224 | [11] 0.061

DMKN (UniProt Q6E0U4)
inactive: [17] -0.072 | [1] -0.032 | [2] 0.274 | [3] -0.242 | [13] 0.332 | [4] -0.033 | [5] 0.074 | [6] 0.691 | [7] 0.363 | [14] 0.092 | [8] 0.227 | [9] 0.172 | [10] 0.085

DMTF1 (UniProt Q9Y222)
inactive: [20] -0.05 | [1] 0.02 | [2] -0.125 | [3] -0.048 | [7] -0.136 | [15] -0.455 | [9] 0.038 | [11] 0 | [16] -0.228

DHPS (UniProt M0R1T2)
inactive: [20] 0.118 | [5] 0.11

DENND1A isoform 6 (UniProt Q8TEH3)
active: [7] -0.856
inactive: [1] 0.025 | [12] -0.009 | [2] -0.119 | [3] 0.114 | [5] 0.293 | [9] 0.112

DDX52 (UniProt Q9Y2R4)
inactive: [17] -0.098 | [12] -0.239 | [5] -0.002 | [10] -0.236 | [11] 0.31

DDB1 isoform 2 (UniProt Q16531)
inactive: [20] -0.144 | [18] -0.061 | [5] 0.116 | [6] 0.141 | [19] -0.287 | [15] 0.235 | [16] -0.041

DNAH10 (UniProt Q8IVF4)
inactive: [20] -0.034 | [12] -0.114 | [18] 0.434 | [2] -0.067 | [13] -0.269 | [4] 0.307 | [5] 0.014 | [6] 0.066 | [14] -0.146 | [19] 0.072 | [15] -0.183 | [9] -0.008 | [11] 0 | [16] 0.006

DET1 isoform 2 (UniProt Q7L5Y6)
inactive: [17] -0.321 | [1] -0.254 | [12] -0.048 | [3] 0.024 | [13] -0.125 | [7] -0.28

DDX55 (UniProt Q8NHQ9)
inactive: [20] 0.267 | [2] -0.144 | [5] 0.137 | [6] -0.088 | [9] 0.08 | [10] -0.042

DDX11L8 (UniProt A8MPP1)
inactive: [1] -0.012 | [3] 0.05 | [5] 0.027 | [7] -0.103 | [10] -0.021 | [11] 0.2

DDR1 isoform 5 (UniProt Q08345)
inactive: [17] 0.078 | [12] -0.097 | [18] 0.075 | [2] -0.066 | [4] 0.347 | [19] -0.04 | [8] -0.009 | [15] -0.048 | [9] 0.129 | [16] -0.607

DDX39B (UniProt H0Y400)
inactive: [18] -0.071 | [4] 0.066 | [19] -0.141 | [8] 0.045

DIEXF (UniProt Q68CQ4)
inactive: [2] 0.063 | [9] 0.145 | [11] 0.172

DMBT1 isoform 6 (UniProt Q9UGM3)
inactive: [20] 0.014 | [18] 0.04 | [13] -0.197 | [5] -0.185 | [14] 0.955 | [19] 0.439 | [10] -0.013

DDX10 (UniProt Q13206)
inactive: [4] 0.207 | [8] 0.005 | [11] 0.147

DEPDC5 (UniProt O75140)
inactive: [12] -0.095 | [11] -0.154

DEAF1 (UniProt O75398)
inactive: [11] 0.142

DHTKD1 (UniProt Q96HY7)
inactive: [12] -0.208 | [18] -0.056 | [4] 0.096 | [5] 0.094 | [6] -0.013 | [19] 0.259 | [8] -0.511 | [10] 0.04

DEF6 (UniProt Q9H4E7)
inactive: [17] -0.177 | [12] -0.333 | [18] 0.41 | [13] 0.044 | [19] -0.131

DHX35 (UniProt Q9H5Z1)
inactive: [18] 0.156 | [14] -0.226 | [19] 0.056

DKK4 (UniProt Q9UBT3)
inactive: [15] -0.019 | [16] 0.665

DHX32 (UniProt Q7L7V1)
inactive: [18] 0.271 | [6] 0.095 | [19] -0.007

DEGS1 (UniProt O15121)
inactive: [20] -0.088 | [1] 0.003 | [18] -0.062 | [2] -0.185 | [3] 0.033 | [13] -0.053 | [4] -0.023 | [5] -0.018 | [6] 0.061 | [7] -0.02 | [14] 0.012 | [19] -0.037 | [15] -0.168 | [9] 0.068 | [11] -0.1 | [16] 0.019

DESI2 (UniProt Q9BSY9)
inactive: [20] 0.053 | [1] 0.134 | [12] 0.061 | [3] 0.079 | [4] 0.081 | [5] 0.008 | [6] 0.017 | [7] -0.156 | [14] 0.013 | [8] -0.148 | [10] 0.092

DDX18 (UniProt Q9NVP1)
inactive: [20] -0.102 | [12] -0.074 | [13] 0.059 | [6] 0.133 | [15] -0.086 | [11] 0.351 | [16] 0.285

DEF8 (UniProt Q6ZN54)
inactive: [1] 0.047 | [2] 0.181 | [3] 0.069 | [4] -0.013 | [5] 0.146 | [7] -0.201 | [8] 0.179 | [9] 0.024 | [10] -0.193

DECR1 (UniProt E5RJD2)
inactive: [1] -0.033 | [3] -0.163 | [13] 0.045 | [5] -0.037 | [7] 0.039 | [14] -0.247 | [15] 0.06 | [10] -0.032 | [11] -0.047 | [16] -0.271

DDX25 (UniProt Q9UHL0)
inactive: [1] 0.065 | [12] 0.067 | [2] 0.252 | [3] 0.239 | [13] 0.116 | [5] 0.204 | [6] -0.082 | [7] -0.154 | [14] 0.01 | [9] 0.151 | [10] -0.037 | [11] -0.169

DERPC (UniProt P0CG12)
active: [4] 0.454 | [11] 0.519
inactive: [17] -0.052 | [12] 0.005 | [2] 0.07 | [13] -0.029 | [5] 0.012 | [6] 0.127 | [14] -0.051 | [15] 0.197 | [9] 0.053 | [16] 0.025

DMTN isoform 2 (UniProt Q08495)
inactive: [17] -0.011 | [12] -0.033 | [5] 0.062 | [14] 0.099 | [10] -0.037

DFFA isoform 2 (UniProt O00273)
inactive: [12] 0.006 | [18] 0.133 | [13] 0.129 | [4] 0.153 | [5] -0.055 | [14] 0.001 | [19] -0.061 | [8] -0.043 | [10] 0.062 | [11] -0.084

DLK1 (UniProt P80370)
active: [6] 0.43
inactive: [12] -0.033 | [18] -0.003 | [2] -0.026 | [19] 0.012 | [9] -0.016 | [11] 0.127

DLC1 (UniProt Q96QB1)
inactive: [12] -0.509 | [18] 0.063 | [2] 0.006 | [13] 0.047 | [6] -0.024 | [14] -0.273 | [19] 0.032 | [15] 0.161 | [9] 0.021 | [16] -0.501

DENND1C (UniProt Q8IV53)
inactive: [20] -0.211 | [2] -0.268 | [4] 0.151 | [8] -0.152 | [9] -0.014
